Our source for the AC50 values is PubChem BioAssay AID1487 (National Center for Advancing Translational Sciences (NCATS), 2009).

The nature of this assay: qHTS Assay for Modulators of Lamin A Splicing. To be noted: HeLa LMNA splicing GFP/RFP minigene ratio, 48 h. The method in brief:
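S3 HeLa stable clones carrying a lamin A-EGFP splicing minigene plus DsRed2 were seeded at 600 cells/well in Opti-MEM with 2% FBS, pin-dosed and incubated 48 h at 37°C. Acumen cytometry (488 nm) gave the GFP/RFP total-intensity ratio.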

Where [1] appears, read: measured here: RFP viability control channel.
Where [2] appears, read: measured here: GFP splicing reporter channel.

Where “and” joins values, the source holds several entries; their conditions need not be identical. Identical values can stand only once. Some of the results follow. The main result of the screen is listed elsewhere. These columns were measured beside it and carry no call. The list favours compounds with an active or inconclusive main result. Words in brackets tell the shape of the fitted curve; partial curves, single points and poor fits give uncertain potencies.

On to `COc1ccc(Cn2c(O)c(/C=N/NC(=O)c3ccccc3O)c(=O)[nH]c2=O)cc1`, for which the AC50 under setting [1] is 3.98 µM [rising, partial curve, poor fit].

Turning to `CN1C(=O)C(=Cc2ccccc2Oc2ccc(Cl)cc2)C(=O)N(C)C1=O`, the AC50 under setting [1] was 15.8 µM [rising, single point].

Take `CC(C)CC(CN)CC(=O)O` (centres undefined): the AC50 under setting [1] is 0.000891 µM [rising, full curve, poor fit].

Consider `COc1ccc2c(c1OC)CN1CCc3cc4c(cc3[C@@H]1[C@@H]2O)OCO4`, for which the AC50 under setting [1] is 3.55 µM [rising, single point].

Regarding `N[C@@]1(C(=O)O)CC[C@@H](C(=O)O)C1`, the AC50 was 4.47 µM [rising, partial curve] under setting [2] and 6.31 µM [rising, single point] under setting [1].

For the compound `[N-]=[N+]=CC(=O)OC[C@H](N)C(=O)O`, under setting [2], the AC50 was 2.51 µM [rising, partial curve, poor fit].

In the case of `Fc1ccc(C(OCCN2CCCC2)c2ccc(Br)cc2)cc1` (centres undefined), the AC50 was 35.5 µM [falling, single point] under setting [2] and 35.5 µM [falling, single point] under setting [1].

On to `CC/C(=N\N1CCCCCC1)c1c(O)n(-c2ccccc2C)c(=O)[nH]c1=O`, for which the AC50 reads like this: under setting [2], 14.1 µM [rising, partial curve, poor fit]; under setting [1], 12.6 µM [rising, partial curve].

For the compound `CN(C)CCOc1ccc(/C(=C(/CCCl)c2ccccc2)c2ccccc2)cc1`, the AC50 is, setting by setting: under setting [2], 31.6 µM [rising, single point]; under setting [1], 20 µM [rising, single point].

With `O=C1CN=C(c2ccc(Br)cc2)c2c(sc3c2CCCC3)N1CCN1CCCCC1`, the AC50 under setting [2] is 1.41 µM [rising, partial curve, poor fit].

On to `CC(=O)N1CN2CN(C1)CN(C(C)=O)C2`, for which, under setting [2], the AC50 is 17.8 µM [falling, single point].

Take `C=CCn1c(O)c(C(C)=Nc2ccc(N(C)C)cc2)c(=O)[nH]c1=O`: the AC50 under setting [1] was 17.8 µM [rising, single point].

As to `CC(C(=O)c1c[nH]c2ccccc12)N1CCc2ccccc2C1` (centres undefined), the AC50 under setting [1] is 31.6 µM [rising, single point].

For the compound `CCOc1ccc(N2C(=O)NC(=O)/C(=C\c3ccc(N4CCCCC4)o3)C2=O)cc1`, the AC50 under setting [1] was 4.47 µM [falling, full curve, poor fit].

For `NC(=O)c1cn(C2OC(CO)C(O)C2O)c2ncnc(N)c12` (centres undefined), the AC50 is 0.891 µM [falling, full curve, poor fit] under setting [2] and 11.2 µM [rising, partial curve] under setting [1].

With `COc1cc(CC2(CCc3ccncc3)C(=O)N(C)C(=O)N(C)C2=O)cc(OC)c1OC`, the AC50 is 22.4 µM [falling, single point] under setting [2] and 22.4 µM [falling, partial curve, poor fit] under setting [1].

As to `C[C@@H]1O[C@@H](O[C@H]2C[C@@H](O)[C@]3(CO)[C@H]4[C@H](O)C[C@]5(C)[C@@H](C6=CC(=O)OC6)CC[C@]5(O)[C@@H]4CC[C@]3(O)C2)[C@H](O)[C@H](O)[C@H]1O`, the AC50 is, setting by setting: under setting [2], 0.891 µM [rising, partial curve]; under setting [1], 0.794 µM [rising, full curve].

Turning to `COc1ccc(CNC(=O)Cn2c(SCC(=O)Nc3ccc(C)c(C)c3)nc3ccccc32)cc1`, the AC50 is, setting by setting: under setting [2], 35.5 µM [falling, single point]; under setting [1], 35.5 µM [falling, single point].

On to `O=C(C[n+]1ccn(CCCNP2(=O)C=C(c3ccccc3)OC(c3ccccc3)=C2)c1)c1ccccc1`, for which the AC50 under setting [1] is 0.126 µM [falling, partial curve, poor fit].

Consider `Cc1c(N=Nc2c(O)n(Cc3ccccc3)c(=O)[nH]c2=O)c(=O)n(-c2ccccc2)n1C`, for which the AC50 runs as follows: under setting [2], 11.2 µM [rising, single point]; under setting [1], 20 µM [rising, single point].

For `CCOc1ccc(N(CC)S(=O)(=O)c2ccc3c(c2)oc(=O)n3C)cc1`, the concentration at half-maximal activity (AC50) under setting [1] was 35.5 µM [rising, single point].

As to `COc1ccc2c3c([nH]c2c1)C(C)=NCC3`, the AC50 is 2.82 µM [rising, partial curve] under setting [2] and 7.08 µM [rising, partial curve] under setting [1].

`CCN(CC)c1ccc(/C=C/[N+](=O)[O-])cc1`: the AC50 under setting [1] is 35.5 µM [rising, single point].

Turning to `CN(Cc1c[nH]c2ccccc12)C1CCCCC1`, the AC50 was 31.6 µM [rising, single point] under setting [2] and 31.6 µM [rising, single point] under setting [1].

As to `CCCN1CCC[C@@H]2Cc3[nH]ncc3C[C@H]21`, the AC50 is 11.2 µM [falling, partial curve, poor fit] under setting [2] and 5.01 µM [falling, partial curve, poor fit] under setting [1].

Consider `C[C@@H](N)Cc1cnc[nH]1`, for which the AC50 under setting [1] was 6.31 µM [falling, single point].

As to `Cc1ccc(C2=NN(CCC(=O)N3CCC4(CC3)OCCO4)C(=O)CC2)cc1`, the AC50 under setting [1] was 0.708 µM [falling, full curve].

For `CCc1ccc(OCC(=O)N2CCN(CCc3ccncc3)CC2)cc1`, the AC50 under setting [2] was 0.2 µM [falling, full curve, poor fit].

As to `Clc1cc(I)cc(Cl)c1NC1=NCCN1`, the AC50 was 5.62 µM [falling, partial curve, poor fit] under setting [2] and 6.31 µM [falling, single point] under setting [1].

`Cc1ccc(-c2nc3ccc(Cl)cc3n2OC(=O)N(C)C)cc1`: the AC50 under setting [1] is 12.6 µM [rising, single point].

Turning to `CC1CCCN(CC(=O)c2ccc(Cl)c(Cl)c2)C1` (centres undefined), the AC50 under setting [1] was 0.0447 µM [rising, full curve, poor fit].

Take `Cc1cc(OCC(=O)NC2CCS(=O)(=O)C2)c2c3c(c(=O)oc2c1)CCC3` (centres undefined): the AC50 under setting [2] was 11.2 µM [rising, partial curve] and the AC50 under setting [1] is 3.16 µM [rising, full curve].

For the compound `COC(=O)C(N)CCCN=C(N)N[N+](=O)[O-]` (centres undefined), the AC50 under setting [1] was 0.000891 µM [falling, full curve, poor fit].

For `CC(C)C[C@H]1C(=O)N2CCCC2[C@]2(O)O[C@](NC(=O)[C@@H]3C=C4c5cccc6[nH]c(Br)c(c56)C[C@H]4N(C)C3)(C(C)C)C(=O)N12` (some centres undefined), the AC50 reads like this: under setting [2], 17.8 µM [falling, partial curve]; under setting [1], 5.01 µM [rising, full curve, poor fit] and 15.8 µM [falling, single point].

Usually AC50 stands for the concentration at which the activity in the assay is half-maximal.
